Source: PMC5992149
Results are given in words; binding and its absence hold for the method and conditions named. In cells and extracts the contact can be indirect. Some results given as binding are weak or reduced against the parent protein; the word gives no strength.

Protein sequences, listed by entry. Tags and fused reporters are not part of them. Residues count along the entry.
UniProt Q15109, residues 23-404: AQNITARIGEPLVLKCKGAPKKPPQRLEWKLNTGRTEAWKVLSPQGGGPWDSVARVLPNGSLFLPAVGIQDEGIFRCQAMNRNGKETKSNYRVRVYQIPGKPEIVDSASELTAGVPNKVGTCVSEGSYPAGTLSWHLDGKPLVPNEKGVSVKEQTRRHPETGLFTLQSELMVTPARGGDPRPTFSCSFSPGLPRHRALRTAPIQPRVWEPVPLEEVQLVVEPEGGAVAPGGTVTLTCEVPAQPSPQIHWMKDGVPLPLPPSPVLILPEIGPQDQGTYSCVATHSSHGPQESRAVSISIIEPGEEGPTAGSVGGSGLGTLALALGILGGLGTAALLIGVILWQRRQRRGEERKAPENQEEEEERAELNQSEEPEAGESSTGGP
UniProt P27695: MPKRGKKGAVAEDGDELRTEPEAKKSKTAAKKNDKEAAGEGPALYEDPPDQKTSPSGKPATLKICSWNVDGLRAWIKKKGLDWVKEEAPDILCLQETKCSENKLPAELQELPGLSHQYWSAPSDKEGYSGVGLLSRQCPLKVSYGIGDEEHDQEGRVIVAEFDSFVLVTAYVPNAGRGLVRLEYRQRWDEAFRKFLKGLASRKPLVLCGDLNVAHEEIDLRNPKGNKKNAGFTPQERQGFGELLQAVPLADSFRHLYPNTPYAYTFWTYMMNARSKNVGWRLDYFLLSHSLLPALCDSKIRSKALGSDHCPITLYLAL

What was measured:
[1] = target: receptor for advanced glycation end products (human (endogenous in MDA-MB-231)) (UniProt Q15109); test: condition: only xenografts treated with SA or TSA alone (no hyperacetylation); proximity ligation; Duolink II fluorescence kit on tumor sections of xenografts treated with SA or with TSA alone (not hyperacetylated); primary anti-RAGE (clone A11) and anti-APE1/Ref-1 antibodies
[2] = target: receptor for advanced glycation end products (human (endogenous in MDA-MB-231)) (UniProt Q15109); test: proximity ligation; Duolink II fluorescence kit on tumor sections of hyperacetylated (20 mg/(kg·day) ASA + 0.5 mg/kg TSA) xenografts; primary anti-RAGE (clone A11) and anti-APE1/Ref-1 antibodies; proximity <40 nm; confocal microscopy
[3] = target: RAGE stably overexpressed in MDA-MB-231 cells (RAGE^OV) (UniProt Q15109); test: as above

binding [1]: no binding
binding [2]: binds
binding [3]: binds
Substance: secreted acetylated-apurinic apyrimidinic endonuclease 1/redox factor-1 (from UniProt P27695 1-318)
